Experimental data from PMC7673560.
No constants are given. Whether binding was seen depends on the method and setting. In cells and extracts the contact can be indirect. Some results given as binding are weak or reduced against the parent protein; the word gives no strength. Tags and fused reporters may be left off the sequences shown.

B1: UPF1-3FLAG (enzyme, UniProt Q9FJR0 1-1254)
chain: MDSQQSDLFDTASQPDTVADEYTFLEFNTQGDSEFDYQDFGSPTAWPTPSDSISIADVADRGEGGAAADHHSEASSPSSLSAGAGNGAKVGRGGVGGSGGVSSSSQVDALAAGVGNLNFEETGDDDGFDYGKNDFTEHACKYCGISNPACVVRCNVASCRKWFCNSRGNTSGSHIVNHLVRAKHKEVCLHRDSPLGETILECYNCGCRNVFLLGFISAKTDSVVVLLCRDPCLNVNALKDMNWDLSQWCPLIDDRCFLPWLVKVPSEQEQLRARQISAQQINKIEELWKTNPDATLEDLEKPGVDDEPQPVQPKYEDAYQYQNVFAPLIKLEADYDKMMKESQSKENLTVRWDIGLNKKRVAYFVFPKEENELRLVPGDELRLRYSGDAVHPSWQSVGHVIKLTAQEEVALELRANQGVPIDVNHGFSVDFVWKSTSFDRMQGAMKNFAVDETSVSGYIYHQLLGHEVEAQMVRNTLPRRFGVPGLPELNASQVNAVKSVLQKPISLIQGPPGTGKTVTSAAIVYHMAKQGQGQVLVCAPSNVAVDQLAEKISATGLKVVRLCAKSREAVSSPVEYLTLHYQVRHLDTSEKSELHKLQQLKDEQGELSSSDEKKYKNLKRATEREITQSADVICCTCVGAADLRLSNFRFRQVLIDESTQATEPECLIPLVLGVKQVVLVGDHCQLGPVIMCKKAARAGLAQSLFERLVTLGIKPIRLQVQYRMHPALSEFPSNSFYEGTLQNGVTIIERQTTGIDFPWPVPNRPMFFYVQLGQEEISASGTSYLNRTEAANVEKLVTAFLKSGVVPSQIGVITPYEGQRAYIVNYMARNGSLRQQLYKEIEVASVDSFQGREKDYIILSCVRSNEHQGIGFLNDPRRLNVALTRARYGIVILGNPKVLSKQPLWNGLLTHYKEHECLVEGPLNNLKQSMVQFQKPRKIYNDRRLFYGGGAGMIGNDNFGSGNPNADRRGSRGRAGGSYLPSGPPNGARPGLHPAGYPIPRVPLSPFPGGPPSQPYAIPTRGPVGAVPHAPQPGNHGFGAGRGTSVGGHLPHQQATQHNVGTIGPSLNFPLDSPNSQPSPGGPLSQPGYGSQAFRDGFSMGGISQDFLADDIKSQGSHDPYNMADFATQASPGGFAVDYATQGAHGAFPGNFMNQNSQGGYSRFSGINDFMSQEYMAHGGQGLFTQAGFIDSSQDDGQQNPYGVNNPNLQSQGLPNSLYSQPFAHYNTQPLNLSGPQQSQPNQSSQNPKHPYNG
B2: UPF1 fused to nYFP (enzyme, UniProt Q9FJR0 1-1254)
chain: B1 chain

Key:
[1] = target: T1, TOPOISOMERASE Iα with 4HA tag (TOP1α-4HA) (Arabidopsis thaliana) (UniProt P30181); test: co-IP; nuclear protein extracts of pistils (progeny of top1α-10 gTOP1α-4HA x upf1-1 gUPF1-3FLAG), anti-HA agarose beads, 4°C 2 h, 50 mM Tris-HCl pH 7.5, 150 mM NaCl, 0.5% Triton X-100; detected by anti-FLAG
T1 sequence: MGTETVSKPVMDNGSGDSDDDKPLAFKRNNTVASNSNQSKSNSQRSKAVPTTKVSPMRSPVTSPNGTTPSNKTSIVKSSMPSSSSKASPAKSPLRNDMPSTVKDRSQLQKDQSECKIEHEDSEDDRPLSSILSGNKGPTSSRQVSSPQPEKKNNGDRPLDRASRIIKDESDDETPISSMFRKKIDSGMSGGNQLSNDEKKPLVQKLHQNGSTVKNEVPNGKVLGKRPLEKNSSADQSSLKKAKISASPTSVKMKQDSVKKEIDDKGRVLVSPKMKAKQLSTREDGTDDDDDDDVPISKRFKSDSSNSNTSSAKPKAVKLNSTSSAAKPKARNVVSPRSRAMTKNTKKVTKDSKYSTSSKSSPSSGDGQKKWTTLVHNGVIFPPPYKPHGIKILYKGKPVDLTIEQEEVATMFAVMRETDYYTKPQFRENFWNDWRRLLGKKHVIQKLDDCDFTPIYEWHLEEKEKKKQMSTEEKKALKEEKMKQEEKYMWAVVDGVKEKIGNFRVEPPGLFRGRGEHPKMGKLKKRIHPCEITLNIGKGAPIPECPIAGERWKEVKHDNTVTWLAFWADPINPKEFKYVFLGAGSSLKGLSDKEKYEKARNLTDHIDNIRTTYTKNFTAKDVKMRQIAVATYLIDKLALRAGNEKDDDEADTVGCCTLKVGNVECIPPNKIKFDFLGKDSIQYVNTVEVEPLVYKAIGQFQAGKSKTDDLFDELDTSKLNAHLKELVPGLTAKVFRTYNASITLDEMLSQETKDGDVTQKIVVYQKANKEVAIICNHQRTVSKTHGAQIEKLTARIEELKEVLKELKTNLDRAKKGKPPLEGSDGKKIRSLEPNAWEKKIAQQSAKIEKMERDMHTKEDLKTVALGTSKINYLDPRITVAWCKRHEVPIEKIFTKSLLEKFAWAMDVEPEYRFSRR

[2] = target: T2, TOP1α fused to cYFP (Arabidopsis thaliana) (UniProt P30181); test: split reporter; BiFC in Nicotiana benthamiana leaf epidermal cells, 2 d after infiltration, confocal microscope; signal only in the nucleus
T2 sequence: T1 sequence

Binder	binding [1]	binding [2]
B1	binds	–
B2	–	binds
